US20150246024A1 (priority 2012, published 2015)

Test system: S. aureus RN4220
Assay: Selection of resistant S. aureus variants on agar
Format: cell-based

Compound	frequency of resistant mutants (LB agar, filter disk, 2.4×10^7 CFU)	frequency of resistant colonies (Mueller-Hinton agar, gradient 10-200 μM compound 1771, 2×10^9 CFU)
[H]/N=C(/N)N[C@H]1[C@H](O)[C@@H](O)[C@H](O[C@@H]2O[C@@H](C)[C@](O)(C=O)[C@H]2O[C@@H]2O[C@@H](CO)[C@H](O)[C@@H](O)[C@@H]2NC)[C@@H](N/C(N)=N\[H])[C@@H]1O [streptomycin, reference compound]	< 10^−7	
O=C(COC(=O)Cc1coc2ccc3ccccc3c12)Nc1nnc(-c2ccccc2)o1 [Compound 1771, 2-oxo-2-[(5-phenyl-1,3,4-oxadiazol-2-yl)amino]ethylnaphtho[2,1-b]furan-1-ylacetate]		≤ 2×10^−9
